This is a selection; strong and weak results do not stand in their true shares. This is a noisy data set.
Compound: COC(=O)/C=C/c1ccccc1 [methyl cinnamate]
Test: log2 ratio of iodoacetamide-alkyne labeling of the cysteine site, DMSO over compound (competition); higher = stronger covalent engagement of the cysteine by the compound, active = 1 or more
Details: 500 µM; treatment time 1 h; system: HEK293T cell lysate
How it was run: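 HEK293T lysate at 2 mg/mL was treated with vehicle or electrophile (500 µM) for 1 h at ambient temperature, then labelled with iodoacetamide alkyne (1 h), clicked to sCIP-TMT reagents, pooled, digested with trypsin overnight at 37 °C, enriched on streptavidin and eluted with acid. Peptides were analysed by Orbitrap Eclipse LC-MS/MS with FAIMS and quantified in FragPipe, using duplicate channels and three replicates, with cysteines quantified in only one replicate excluded. The log2 competition ratio for each cysteine is the mean control-channel reporter intensity divided by the mean compound-channel reporter intensity.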

Protein sequences, listed by entry. Tags and fused reporters are not part of them. Lines headed by an entry give the natural chain unless they say otherwise; changes in a name come on top.
UniProt Q15366, whole entry, looked up: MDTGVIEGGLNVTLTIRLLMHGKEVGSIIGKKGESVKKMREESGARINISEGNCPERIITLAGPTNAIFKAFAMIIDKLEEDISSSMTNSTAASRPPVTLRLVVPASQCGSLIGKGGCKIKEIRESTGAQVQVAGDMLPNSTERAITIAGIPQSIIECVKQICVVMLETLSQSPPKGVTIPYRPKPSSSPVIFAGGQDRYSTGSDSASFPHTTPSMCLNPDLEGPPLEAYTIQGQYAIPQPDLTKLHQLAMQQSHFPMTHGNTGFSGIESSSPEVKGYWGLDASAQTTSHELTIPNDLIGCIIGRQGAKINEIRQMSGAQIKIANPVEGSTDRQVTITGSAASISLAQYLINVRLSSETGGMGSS
UniProt Q16576, whole entry, looked up: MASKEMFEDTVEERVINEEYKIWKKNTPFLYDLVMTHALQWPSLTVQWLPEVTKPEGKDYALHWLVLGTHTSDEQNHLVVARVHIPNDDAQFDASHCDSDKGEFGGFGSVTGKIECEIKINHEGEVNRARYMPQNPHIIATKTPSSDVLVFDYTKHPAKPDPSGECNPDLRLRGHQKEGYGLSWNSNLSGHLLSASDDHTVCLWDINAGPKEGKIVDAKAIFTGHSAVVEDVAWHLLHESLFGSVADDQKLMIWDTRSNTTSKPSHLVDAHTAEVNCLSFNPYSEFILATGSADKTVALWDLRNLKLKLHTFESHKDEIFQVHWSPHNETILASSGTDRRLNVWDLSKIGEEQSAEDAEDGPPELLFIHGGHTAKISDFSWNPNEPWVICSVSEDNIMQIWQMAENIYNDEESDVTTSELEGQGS
UniProt Q16543: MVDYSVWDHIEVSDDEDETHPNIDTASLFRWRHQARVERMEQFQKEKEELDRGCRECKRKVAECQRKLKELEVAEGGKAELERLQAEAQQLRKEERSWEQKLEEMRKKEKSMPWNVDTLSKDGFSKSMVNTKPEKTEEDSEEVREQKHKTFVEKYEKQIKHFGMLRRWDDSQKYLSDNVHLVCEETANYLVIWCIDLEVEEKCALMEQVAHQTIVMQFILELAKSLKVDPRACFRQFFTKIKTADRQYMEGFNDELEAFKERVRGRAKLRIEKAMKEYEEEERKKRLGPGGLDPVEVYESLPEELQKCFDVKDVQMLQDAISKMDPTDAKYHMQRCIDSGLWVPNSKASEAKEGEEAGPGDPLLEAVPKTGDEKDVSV
UniProt Q29RF7: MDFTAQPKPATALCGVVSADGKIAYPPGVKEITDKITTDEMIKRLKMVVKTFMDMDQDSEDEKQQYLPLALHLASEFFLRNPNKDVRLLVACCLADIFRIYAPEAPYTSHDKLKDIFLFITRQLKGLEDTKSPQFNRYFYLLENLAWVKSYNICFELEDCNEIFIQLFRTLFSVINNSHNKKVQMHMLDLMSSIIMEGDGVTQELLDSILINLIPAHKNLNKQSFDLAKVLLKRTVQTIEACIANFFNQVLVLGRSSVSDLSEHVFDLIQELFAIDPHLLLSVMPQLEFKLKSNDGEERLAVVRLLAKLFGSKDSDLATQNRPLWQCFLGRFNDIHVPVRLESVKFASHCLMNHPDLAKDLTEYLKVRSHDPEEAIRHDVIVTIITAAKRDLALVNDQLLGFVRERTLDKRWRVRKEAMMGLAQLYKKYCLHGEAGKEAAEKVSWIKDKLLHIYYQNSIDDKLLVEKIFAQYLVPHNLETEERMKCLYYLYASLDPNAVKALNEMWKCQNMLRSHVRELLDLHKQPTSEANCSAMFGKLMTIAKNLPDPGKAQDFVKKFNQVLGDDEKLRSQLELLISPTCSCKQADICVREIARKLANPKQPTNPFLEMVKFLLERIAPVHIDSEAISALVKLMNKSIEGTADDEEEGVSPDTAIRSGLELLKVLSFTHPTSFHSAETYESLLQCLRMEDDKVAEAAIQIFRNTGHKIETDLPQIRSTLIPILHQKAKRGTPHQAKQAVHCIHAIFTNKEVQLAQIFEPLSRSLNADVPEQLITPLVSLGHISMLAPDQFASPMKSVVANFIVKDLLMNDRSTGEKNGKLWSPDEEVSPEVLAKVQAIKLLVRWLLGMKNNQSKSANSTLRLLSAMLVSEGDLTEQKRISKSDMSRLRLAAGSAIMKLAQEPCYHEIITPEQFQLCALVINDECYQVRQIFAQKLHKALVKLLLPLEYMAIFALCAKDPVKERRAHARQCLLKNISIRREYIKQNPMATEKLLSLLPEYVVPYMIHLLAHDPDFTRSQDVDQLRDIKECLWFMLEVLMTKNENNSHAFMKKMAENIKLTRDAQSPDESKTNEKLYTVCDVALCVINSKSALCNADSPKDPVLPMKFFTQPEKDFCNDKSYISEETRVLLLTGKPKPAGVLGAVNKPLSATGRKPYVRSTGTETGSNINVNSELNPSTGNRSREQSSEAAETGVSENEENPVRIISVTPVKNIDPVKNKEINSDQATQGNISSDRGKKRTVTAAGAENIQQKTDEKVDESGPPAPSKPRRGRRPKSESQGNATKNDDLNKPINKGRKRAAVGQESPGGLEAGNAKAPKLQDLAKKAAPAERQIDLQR
UniProt Q15120, whole entry, looked up: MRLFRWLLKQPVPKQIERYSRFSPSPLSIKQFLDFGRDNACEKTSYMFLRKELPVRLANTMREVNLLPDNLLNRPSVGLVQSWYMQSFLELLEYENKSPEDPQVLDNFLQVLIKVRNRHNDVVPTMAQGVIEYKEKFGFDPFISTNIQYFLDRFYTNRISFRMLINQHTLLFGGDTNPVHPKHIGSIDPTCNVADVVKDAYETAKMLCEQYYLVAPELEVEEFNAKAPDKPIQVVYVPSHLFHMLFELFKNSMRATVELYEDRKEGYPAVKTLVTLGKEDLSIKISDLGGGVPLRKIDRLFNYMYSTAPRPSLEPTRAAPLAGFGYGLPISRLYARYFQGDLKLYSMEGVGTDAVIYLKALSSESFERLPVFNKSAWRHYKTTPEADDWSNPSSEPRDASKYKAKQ
UniProt Q15058: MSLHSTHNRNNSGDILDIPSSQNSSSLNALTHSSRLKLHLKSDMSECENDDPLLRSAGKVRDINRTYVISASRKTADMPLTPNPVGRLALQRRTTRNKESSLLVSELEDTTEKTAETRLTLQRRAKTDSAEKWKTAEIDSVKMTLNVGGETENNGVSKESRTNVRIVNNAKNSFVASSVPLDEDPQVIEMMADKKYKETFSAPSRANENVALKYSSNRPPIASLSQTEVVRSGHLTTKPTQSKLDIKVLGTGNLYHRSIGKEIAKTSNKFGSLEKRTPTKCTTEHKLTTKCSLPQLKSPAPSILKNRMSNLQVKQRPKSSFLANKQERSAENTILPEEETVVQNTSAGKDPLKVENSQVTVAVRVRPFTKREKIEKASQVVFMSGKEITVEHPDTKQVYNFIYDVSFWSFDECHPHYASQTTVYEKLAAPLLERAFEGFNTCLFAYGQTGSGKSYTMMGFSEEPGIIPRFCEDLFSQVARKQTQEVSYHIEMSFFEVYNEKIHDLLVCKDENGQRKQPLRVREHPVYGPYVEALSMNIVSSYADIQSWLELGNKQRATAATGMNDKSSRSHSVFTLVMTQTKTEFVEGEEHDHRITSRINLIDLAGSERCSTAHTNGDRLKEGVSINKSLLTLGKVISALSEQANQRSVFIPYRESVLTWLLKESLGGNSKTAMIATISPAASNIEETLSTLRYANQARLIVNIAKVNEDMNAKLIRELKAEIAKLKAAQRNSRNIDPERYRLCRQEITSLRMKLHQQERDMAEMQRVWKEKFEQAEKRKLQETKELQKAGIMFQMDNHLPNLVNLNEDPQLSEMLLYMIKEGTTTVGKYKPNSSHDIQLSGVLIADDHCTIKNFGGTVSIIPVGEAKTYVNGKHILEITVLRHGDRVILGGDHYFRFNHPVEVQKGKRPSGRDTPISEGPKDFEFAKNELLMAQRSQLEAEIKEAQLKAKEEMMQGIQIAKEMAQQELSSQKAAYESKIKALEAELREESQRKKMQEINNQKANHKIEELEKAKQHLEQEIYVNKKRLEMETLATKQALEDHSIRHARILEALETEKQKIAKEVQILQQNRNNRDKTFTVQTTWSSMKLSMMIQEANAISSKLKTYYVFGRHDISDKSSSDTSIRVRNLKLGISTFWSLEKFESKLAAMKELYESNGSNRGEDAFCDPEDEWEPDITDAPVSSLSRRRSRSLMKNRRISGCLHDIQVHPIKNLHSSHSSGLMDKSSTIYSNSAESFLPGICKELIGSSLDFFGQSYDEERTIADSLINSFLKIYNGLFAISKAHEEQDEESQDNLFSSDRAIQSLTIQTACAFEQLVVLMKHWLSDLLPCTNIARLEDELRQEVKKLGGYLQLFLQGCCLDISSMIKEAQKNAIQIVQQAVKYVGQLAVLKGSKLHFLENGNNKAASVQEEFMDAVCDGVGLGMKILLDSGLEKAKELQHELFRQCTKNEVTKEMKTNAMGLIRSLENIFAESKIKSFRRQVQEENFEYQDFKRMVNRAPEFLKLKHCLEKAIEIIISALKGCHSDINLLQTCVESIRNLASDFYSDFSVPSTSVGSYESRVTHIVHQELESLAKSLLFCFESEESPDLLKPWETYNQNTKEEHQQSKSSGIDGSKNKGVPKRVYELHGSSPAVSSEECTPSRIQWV
UniProt Q16513: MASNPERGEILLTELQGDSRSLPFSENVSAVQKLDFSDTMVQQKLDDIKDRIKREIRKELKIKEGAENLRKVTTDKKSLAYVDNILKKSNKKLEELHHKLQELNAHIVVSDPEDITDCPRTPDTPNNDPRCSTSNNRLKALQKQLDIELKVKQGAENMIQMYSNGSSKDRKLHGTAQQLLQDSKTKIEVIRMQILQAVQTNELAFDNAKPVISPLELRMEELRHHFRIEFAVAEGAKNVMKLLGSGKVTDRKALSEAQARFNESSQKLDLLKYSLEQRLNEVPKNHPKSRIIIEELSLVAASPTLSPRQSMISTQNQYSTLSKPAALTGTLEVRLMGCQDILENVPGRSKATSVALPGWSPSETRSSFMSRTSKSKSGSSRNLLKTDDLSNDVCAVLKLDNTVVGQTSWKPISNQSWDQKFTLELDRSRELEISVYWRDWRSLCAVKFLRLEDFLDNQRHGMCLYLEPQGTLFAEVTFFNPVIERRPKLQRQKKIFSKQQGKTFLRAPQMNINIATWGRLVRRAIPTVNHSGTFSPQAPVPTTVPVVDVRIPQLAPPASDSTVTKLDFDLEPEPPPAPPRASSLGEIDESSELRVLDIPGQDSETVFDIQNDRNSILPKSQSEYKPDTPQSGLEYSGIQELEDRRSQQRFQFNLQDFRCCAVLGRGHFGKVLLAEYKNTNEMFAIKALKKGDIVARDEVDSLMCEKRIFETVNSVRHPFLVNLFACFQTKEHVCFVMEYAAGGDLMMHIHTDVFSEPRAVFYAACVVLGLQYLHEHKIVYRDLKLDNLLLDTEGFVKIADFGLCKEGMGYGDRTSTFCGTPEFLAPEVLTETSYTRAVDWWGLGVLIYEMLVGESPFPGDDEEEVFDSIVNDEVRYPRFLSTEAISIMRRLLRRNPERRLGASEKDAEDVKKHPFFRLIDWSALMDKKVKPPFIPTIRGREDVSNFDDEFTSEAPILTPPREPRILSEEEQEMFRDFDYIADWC
UniProt Q15345: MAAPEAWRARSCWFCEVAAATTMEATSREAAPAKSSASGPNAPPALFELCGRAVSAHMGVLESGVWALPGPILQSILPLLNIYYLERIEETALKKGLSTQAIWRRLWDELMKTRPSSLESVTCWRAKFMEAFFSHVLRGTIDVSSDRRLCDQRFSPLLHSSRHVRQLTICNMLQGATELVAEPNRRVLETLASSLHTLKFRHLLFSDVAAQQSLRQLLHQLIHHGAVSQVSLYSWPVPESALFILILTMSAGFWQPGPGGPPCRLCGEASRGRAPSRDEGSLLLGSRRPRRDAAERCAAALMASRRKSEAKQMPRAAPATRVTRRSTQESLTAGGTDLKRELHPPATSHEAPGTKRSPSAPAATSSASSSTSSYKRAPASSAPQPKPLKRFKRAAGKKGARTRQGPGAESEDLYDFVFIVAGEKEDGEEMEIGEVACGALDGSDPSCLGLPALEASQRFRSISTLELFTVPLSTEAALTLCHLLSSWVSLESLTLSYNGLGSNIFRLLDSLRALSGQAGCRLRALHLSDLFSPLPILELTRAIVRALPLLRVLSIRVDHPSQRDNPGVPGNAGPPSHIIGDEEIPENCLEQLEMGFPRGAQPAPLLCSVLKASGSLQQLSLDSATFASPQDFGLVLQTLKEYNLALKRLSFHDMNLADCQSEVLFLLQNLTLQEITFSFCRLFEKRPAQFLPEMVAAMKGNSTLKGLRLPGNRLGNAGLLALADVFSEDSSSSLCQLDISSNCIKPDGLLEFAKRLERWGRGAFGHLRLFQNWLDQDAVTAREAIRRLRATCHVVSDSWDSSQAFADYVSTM

log2 ratio of iodoacetamide-alkyne labeling, inactive:
PCBP2 C301 (UniProt Q15366) 0.122
EFTUD2 C639 (UniProt Q15029) 0.133
DBN1 C96 (UniProt Q16643) 0.218
CNN3 C59 (UniProt Q15417) 0.191
SEC23B C434 (UniProt Q15437) 0.166
PCM1 C876 (UniProt Q15154) 0.151
RBBP7 C97 (UniProt Q16576) 0.155
CDC37 C308 (UniProt Q16543) 0.0968
PDS5A C242 (UniProt Q29RF7) -0.164
PWP2 C24 (UniProt Q15269) 0.0555
GLE1 C287 (UniProt Q53GS7) 0.394
PCBP2 C109 (UniProt Q15366) 0.242
WDR43 C380 (UniProt Q15061) 0.175
UniProt Q4ADV7_C182 -0.176
CDC37 C336 (UniProt Q16543) 0.217
PDCD2 C125 (UniProt Q16342) -0.017
GEN1 C668 (UniProt Q17RS7) -0.0508
PDK3 C41 (UniProt Q15120) 0.377
EEA1 C1299 (UniProt Q15075) -0.0883
SEC23B C767 (UniProt Q15437) 0.187
KIF14 C47 (UniProt Q15058) 0.321
PCBP2 C158 (UniProt Q15366) 0.182
TBCE C141 (UniProt Q15813) 0.0907
KIF14 C442 (UniProt Q15058) 0.345
RBBP7 C277 (UniProt Q16576) 0.00508
SEC23A C180 (UniProt Q15436) 0.0171
PDS5A C583 (UniProt Q29RF7) 0.265
UniProt Q15397_C185 0.0749
NCOA1 C831 (UniProt Q15788) 0.119
UniProt Q15149_C3336 0.491
PPA1 C270 (UniProt Q15181) 0.157
UniProt Q16513_C131 0.326
SMAD2 C312 (UniProt Q15796) 0.261
LRRC41 C170 (UniProt Q15345) -0.189
CEP55 C159 (UniProt Q53EZ4) -0.261
LRRC14 C68 (UniProt Q15048) 0.451
FSCN1 C80 (UniProt Q16658) 0.153

Taken from above (7 entries):
log2 ratio of iodoacetamide-alkyne labeling, inactive:
PCBP2 C158 (UniProt Q15366) 0.182
TBCE C141 (UniProt Q15813) 0.0907
KIF14 C442 (UniProt Q15058) 0.345
RBBP7 C277 (UniProt Q16576) 0.00508
SEC23A C180 (UniProt Q15436) 0.0171
PDS5A C583 (UniProt Q29RF7) 0.265
UniProt Q15397_C185 0.0749

Source: the supplement of paper PMC11006884
